According to doi:10.1101/2021.11.24.469949:

What was measured:
Test in all cases: affinity purification with mass spectrometry
[1] = molecular target: T1, ZPR2-tdTomato-3xFLAG (Arabidopsis) (UniProt Q9LZX5)
T1 sequence: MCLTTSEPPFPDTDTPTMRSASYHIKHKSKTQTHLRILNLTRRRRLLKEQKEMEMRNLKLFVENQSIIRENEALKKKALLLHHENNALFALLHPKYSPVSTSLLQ

[2] = molecular target: T2, 3xFLAG tagged CNA (Arabidopsis) (UniProt Q9ZU11)
T2 sequence: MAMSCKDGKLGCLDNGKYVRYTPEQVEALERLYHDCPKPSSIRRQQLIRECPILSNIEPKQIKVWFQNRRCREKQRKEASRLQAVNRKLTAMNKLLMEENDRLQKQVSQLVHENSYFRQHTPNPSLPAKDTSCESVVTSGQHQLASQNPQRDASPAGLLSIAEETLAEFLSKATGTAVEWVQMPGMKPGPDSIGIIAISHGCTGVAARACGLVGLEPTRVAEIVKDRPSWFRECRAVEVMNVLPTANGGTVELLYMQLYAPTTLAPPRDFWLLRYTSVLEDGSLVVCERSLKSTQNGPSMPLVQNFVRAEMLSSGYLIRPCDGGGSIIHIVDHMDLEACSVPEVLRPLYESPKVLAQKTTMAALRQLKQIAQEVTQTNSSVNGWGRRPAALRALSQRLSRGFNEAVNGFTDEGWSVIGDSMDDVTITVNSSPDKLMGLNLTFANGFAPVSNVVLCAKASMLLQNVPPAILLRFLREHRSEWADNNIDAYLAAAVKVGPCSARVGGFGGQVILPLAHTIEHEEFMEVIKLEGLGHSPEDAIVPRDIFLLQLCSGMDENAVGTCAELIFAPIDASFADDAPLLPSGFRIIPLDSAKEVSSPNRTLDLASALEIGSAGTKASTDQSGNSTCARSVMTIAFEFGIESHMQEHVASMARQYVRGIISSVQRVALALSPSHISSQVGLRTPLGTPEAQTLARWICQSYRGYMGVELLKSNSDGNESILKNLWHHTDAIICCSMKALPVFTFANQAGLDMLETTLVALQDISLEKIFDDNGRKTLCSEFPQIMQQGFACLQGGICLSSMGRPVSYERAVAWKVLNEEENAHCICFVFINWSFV

[3] = molecular target: T3, 3xFLAG tagged REV (Arabidopsis) (UniProt Q9SE43)
T3 sequence: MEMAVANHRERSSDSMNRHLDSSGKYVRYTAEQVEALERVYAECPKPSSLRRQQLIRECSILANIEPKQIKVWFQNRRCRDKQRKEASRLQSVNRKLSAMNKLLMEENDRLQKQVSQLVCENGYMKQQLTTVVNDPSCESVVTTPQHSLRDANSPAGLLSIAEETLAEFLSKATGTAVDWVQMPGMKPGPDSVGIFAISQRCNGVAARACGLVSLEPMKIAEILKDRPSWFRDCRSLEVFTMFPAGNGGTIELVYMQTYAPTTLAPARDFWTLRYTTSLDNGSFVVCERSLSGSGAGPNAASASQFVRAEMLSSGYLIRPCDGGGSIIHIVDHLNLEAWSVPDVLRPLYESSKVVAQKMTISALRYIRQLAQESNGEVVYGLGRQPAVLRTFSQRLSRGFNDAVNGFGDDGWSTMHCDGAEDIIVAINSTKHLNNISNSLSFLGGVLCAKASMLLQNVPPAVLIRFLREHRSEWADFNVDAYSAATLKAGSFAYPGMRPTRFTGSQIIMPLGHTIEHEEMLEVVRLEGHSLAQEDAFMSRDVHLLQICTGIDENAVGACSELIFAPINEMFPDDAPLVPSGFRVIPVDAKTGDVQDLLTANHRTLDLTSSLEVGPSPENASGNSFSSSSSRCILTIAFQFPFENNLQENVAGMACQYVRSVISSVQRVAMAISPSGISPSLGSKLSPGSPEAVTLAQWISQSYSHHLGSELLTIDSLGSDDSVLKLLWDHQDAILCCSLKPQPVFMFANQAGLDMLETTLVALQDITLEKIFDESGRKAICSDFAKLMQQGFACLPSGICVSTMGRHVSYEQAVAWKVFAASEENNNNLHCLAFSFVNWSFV

[4] = molecular target: T4, ZPR4-tdTomato-3xFLAG (Arabidopsis) (UniProt Q56WL5)
T4 sequence: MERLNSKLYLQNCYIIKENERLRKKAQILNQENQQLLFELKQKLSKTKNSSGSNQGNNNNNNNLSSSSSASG

[5] = molecular target: T5, ZPR3-tdTomato-3xFLAG (Arabidopsis) (UniProt Q9LXI8)
T5 sequence: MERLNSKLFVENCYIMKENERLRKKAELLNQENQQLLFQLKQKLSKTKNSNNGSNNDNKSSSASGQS

[6] = molecular target: T1, ZPR2-tdTomato-3xFLAG (Arabidopsis); remark: listed apart in the source
[7] = molecular target: ZPR1-tdTomato-3xFLAG (Arabidopsis)
[8] = molecular target: T6, 3xFLAG tagged PHB (Arabidopsis) (UniProt O04291)
T6 sequence: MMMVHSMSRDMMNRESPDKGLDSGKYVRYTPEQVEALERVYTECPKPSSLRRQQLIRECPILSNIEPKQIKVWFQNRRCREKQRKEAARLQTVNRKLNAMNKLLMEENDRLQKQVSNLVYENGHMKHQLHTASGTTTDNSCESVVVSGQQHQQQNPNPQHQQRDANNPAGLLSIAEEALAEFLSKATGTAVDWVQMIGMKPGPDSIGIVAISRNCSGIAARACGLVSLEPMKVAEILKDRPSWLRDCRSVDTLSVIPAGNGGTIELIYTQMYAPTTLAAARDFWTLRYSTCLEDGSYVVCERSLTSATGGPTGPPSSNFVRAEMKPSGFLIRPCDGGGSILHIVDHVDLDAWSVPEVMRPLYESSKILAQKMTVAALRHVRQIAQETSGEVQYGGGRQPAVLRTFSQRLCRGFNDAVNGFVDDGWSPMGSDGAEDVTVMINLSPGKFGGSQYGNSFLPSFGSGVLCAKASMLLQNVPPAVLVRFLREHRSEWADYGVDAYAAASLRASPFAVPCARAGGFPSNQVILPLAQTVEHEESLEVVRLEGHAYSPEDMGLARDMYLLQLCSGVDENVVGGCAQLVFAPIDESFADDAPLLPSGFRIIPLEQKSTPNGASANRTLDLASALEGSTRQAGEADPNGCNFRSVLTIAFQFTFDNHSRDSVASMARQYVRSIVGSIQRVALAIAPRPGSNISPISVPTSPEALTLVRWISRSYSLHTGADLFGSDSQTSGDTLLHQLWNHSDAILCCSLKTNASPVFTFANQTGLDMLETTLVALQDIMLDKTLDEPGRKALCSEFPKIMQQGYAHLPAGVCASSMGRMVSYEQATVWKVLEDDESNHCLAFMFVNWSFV

Measured: binding

AT3G10690.1
binds: [1]

B1: PHABULOSA/ATHB14 (PHB) (protein, UniProt O04291 1-852)
chain: T6 sequence
not listed: [1] | [8]
binds: all other assays above

B2: REVOLUTA/IFL1 (REV) (protein, UniProt Q9SE43 1-842)
chain: T3 sequence
not listed: [1] | [3]
binds: all other assays above

Where two headings read alike, the source gives them in different places. No constants are given. Whether binding was seen depends on the method and setting. In cells and extracts the contact can be indirect. Here binding means that the protein was enriched with, or labelled near, the bait; the list need not be complete. For some of these results: Tags and fused reporters may be left off the sequences shown.
